Results: the supplement of paper PMC10849652
This is one part of the list.

Amino acid sequences for entries named in this document (tags omitted). A change or cut given only in a name is not applied to a line headed by its entry.
UniProt Q9NV96: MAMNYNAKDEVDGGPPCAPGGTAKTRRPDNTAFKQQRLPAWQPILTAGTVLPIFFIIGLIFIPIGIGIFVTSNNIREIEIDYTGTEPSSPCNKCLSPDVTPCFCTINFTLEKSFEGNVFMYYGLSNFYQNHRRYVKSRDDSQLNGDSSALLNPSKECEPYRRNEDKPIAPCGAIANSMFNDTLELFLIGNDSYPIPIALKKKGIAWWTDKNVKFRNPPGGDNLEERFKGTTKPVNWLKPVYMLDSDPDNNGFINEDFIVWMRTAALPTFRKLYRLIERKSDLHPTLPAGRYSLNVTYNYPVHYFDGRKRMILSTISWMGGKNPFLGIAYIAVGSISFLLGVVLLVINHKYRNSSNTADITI
UniProt Q59H18: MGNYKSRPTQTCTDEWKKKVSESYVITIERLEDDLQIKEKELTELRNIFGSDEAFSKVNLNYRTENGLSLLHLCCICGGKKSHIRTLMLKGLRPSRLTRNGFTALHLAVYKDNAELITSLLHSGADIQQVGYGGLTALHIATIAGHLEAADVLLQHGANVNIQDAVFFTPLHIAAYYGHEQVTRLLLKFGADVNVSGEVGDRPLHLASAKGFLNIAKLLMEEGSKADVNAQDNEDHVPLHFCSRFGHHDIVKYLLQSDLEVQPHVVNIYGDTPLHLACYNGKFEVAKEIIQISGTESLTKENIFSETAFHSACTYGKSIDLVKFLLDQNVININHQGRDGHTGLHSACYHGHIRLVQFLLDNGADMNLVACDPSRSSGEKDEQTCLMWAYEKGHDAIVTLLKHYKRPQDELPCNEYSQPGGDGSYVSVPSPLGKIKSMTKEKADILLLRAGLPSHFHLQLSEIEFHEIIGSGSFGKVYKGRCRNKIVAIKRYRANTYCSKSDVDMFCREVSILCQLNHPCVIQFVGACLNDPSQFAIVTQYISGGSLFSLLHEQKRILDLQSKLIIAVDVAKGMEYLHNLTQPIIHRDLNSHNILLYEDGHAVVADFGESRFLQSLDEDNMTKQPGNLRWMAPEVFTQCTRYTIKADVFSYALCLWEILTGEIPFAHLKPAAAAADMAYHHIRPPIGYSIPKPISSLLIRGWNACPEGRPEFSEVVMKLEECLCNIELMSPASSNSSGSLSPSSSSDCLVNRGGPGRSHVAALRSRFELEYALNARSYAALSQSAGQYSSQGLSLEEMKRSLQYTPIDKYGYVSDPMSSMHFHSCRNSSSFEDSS
UniProt P06753, whole entry, looked up: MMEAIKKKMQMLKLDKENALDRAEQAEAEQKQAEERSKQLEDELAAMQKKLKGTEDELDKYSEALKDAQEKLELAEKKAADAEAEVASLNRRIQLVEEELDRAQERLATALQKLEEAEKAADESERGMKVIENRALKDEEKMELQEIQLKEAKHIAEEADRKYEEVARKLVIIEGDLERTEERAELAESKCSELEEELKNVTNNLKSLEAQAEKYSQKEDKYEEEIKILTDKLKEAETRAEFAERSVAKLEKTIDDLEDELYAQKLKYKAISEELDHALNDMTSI
UniProt Q0P6H9: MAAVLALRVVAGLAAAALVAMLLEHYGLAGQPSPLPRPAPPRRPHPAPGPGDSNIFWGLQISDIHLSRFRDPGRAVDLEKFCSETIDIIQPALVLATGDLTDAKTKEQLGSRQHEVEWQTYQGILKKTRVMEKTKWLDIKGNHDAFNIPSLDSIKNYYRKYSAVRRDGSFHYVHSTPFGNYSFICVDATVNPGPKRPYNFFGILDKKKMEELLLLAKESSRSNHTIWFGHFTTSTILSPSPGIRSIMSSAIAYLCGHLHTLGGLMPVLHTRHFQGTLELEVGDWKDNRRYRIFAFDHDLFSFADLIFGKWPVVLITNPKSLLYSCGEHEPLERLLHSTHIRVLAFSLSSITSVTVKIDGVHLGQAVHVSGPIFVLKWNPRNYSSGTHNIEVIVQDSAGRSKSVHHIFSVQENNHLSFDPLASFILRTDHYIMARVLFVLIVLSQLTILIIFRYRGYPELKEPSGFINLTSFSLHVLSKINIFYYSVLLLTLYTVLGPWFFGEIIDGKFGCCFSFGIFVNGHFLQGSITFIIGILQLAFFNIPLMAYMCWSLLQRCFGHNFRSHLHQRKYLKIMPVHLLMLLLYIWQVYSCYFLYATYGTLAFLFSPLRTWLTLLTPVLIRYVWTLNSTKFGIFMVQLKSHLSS
UniProt Q96HV5: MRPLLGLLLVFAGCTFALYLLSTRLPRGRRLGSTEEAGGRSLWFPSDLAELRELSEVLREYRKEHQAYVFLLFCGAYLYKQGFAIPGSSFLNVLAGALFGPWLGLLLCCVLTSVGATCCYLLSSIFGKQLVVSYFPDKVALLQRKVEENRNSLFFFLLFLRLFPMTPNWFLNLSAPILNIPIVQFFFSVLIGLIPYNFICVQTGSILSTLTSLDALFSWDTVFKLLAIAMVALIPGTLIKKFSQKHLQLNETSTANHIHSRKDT
UniProt Q9NVH6: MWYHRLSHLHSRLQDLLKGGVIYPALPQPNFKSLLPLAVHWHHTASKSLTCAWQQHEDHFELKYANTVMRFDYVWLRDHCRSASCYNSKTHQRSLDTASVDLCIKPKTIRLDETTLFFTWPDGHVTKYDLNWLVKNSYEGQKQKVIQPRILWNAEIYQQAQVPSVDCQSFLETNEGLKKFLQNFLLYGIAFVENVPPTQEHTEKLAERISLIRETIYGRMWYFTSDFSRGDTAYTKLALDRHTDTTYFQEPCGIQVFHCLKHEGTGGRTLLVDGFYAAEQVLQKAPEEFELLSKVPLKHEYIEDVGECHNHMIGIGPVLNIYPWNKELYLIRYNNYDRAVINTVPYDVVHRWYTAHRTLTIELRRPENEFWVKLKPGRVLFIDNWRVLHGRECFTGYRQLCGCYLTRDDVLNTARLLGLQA
UniProt A0PJW6: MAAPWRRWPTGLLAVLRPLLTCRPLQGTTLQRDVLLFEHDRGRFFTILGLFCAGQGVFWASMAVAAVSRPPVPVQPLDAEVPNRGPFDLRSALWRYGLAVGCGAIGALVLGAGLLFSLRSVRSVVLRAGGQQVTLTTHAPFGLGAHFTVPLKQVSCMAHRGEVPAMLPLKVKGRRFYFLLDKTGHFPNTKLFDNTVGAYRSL
UniProt Q92547, whole entry, looked up: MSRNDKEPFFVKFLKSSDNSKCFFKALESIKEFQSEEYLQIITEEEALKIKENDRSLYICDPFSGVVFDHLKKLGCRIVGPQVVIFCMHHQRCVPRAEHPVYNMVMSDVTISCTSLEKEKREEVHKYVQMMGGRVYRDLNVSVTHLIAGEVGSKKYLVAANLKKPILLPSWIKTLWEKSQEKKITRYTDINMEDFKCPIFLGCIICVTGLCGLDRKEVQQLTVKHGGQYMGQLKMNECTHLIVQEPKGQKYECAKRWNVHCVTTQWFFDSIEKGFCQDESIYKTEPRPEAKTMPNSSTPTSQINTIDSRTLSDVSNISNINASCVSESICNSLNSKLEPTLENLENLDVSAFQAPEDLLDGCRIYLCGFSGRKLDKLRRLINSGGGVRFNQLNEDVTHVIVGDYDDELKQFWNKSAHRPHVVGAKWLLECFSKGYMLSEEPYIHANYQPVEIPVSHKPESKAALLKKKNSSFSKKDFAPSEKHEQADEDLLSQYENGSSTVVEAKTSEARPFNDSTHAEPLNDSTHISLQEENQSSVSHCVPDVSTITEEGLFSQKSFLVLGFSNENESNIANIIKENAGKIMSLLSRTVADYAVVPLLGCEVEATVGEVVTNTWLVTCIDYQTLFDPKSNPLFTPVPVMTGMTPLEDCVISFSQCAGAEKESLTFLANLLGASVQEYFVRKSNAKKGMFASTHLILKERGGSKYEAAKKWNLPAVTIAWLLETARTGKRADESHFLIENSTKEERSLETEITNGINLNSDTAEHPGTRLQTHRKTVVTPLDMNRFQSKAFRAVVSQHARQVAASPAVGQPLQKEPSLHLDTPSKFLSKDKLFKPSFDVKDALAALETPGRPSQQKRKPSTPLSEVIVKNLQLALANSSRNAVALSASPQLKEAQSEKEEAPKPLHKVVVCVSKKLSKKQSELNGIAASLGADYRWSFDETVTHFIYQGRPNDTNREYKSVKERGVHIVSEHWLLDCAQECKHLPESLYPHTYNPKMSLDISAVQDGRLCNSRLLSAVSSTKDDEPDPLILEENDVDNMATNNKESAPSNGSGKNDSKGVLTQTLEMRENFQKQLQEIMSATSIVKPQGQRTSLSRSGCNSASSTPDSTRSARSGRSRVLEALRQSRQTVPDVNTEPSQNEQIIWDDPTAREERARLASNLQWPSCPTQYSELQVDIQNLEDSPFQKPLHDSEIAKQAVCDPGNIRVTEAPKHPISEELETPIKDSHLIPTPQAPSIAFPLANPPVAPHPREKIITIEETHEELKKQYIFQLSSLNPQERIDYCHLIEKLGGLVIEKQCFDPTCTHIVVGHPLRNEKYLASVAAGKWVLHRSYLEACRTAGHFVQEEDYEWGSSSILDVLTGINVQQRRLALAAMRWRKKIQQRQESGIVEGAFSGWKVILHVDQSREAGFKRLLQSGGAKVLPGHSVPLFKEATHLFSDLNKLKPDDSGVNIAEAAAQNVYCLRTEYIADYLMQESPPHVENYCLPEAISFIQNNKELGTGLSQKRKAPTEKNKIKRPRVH

Tests used:
Test in all cases: log2 fold change, soluble protein after heating vs DMSO (PISA); higher = thermal stabilisation; K562 lysate, 10 uM; active = over 0.2 and 3.5 SD of the protein, either way, in both replicates (recomputed)
erlotinib = compound: C#Cc1cccc(Nc2ncnc3cc(OCCOC)c(OCCOC)cc23)c1 [erlotinib]
Summary of the method: (§1)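 K562 pellets were dounce-homogenised in PBS pH 7.4 with 1 mM MgCl2, and the crude extract at 1 mg/mL protein was treated with 10 μM compound for 30 min. Aliquots were heated for 3 min across 48°C-58°C, pooled, and brought to 0.5% NP-40 at 4°C; soluble protein was the supernatant after 21,000xg for 90 min. Soluble protein was quantified by TMTpro 16plex LC-MS/MS with channel sums equalised, and reported as log2 fold change in thermal stability against DMSO controls, with values from duplicates.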

[1] = compound: C/C(=N\NC(=O)C1=CC(=CC=C1)S(=O)(=O)N2CCOCC2)/C3=C(C=CC(=C3)Cl)O
Summary of the method: as §1

[2] = compound: C1=CC(=CC=C1C2=NC3=C(N2)C=C(C=C3)C(=O)N)OC4=CC=C(C=C4)Cl
Summary of the method: as §1

[3] = compound: C1=CC2=C(C=CC(=C2)/C=C\3/C(=O)NC(=NCC4=CC=CS4)S3)N=C1
Summary of the method: as §1

[4] = compound: C1=CC2=NC=CN=C2C=C1/C=C/3\C(=O)NC(=O)S3
Summary of the method: as §1

[5] = compound: C1=CC=C(C=C1)C2=NC(=C(N2)C3=CC=NC=C3)C4=CC(=C(C=C4)Cl)O
Summary of the method: as §1

[6] = compound: C1=CC=C2C(=C1)C3=NNC4=CC=CC(=C43)C2=O
Summary of the method: as §1

[7] = compound: C1CCN(C1)C(=O)NC2=CC=CC(=C2)NC3=NC=C(C(=N3)NCCC4=CN=CN4)Br
Summary of the method: as §1

[8] = compound: C1CN(CCC1(CC2=CC=C(C=C2)Cl)N)C3=NC=NC4=C3C=CN4
Summary of the method: as §1

IRAK-1-4 Inhibitor I = compound: C1COCCN1CCN2C3=CC=CC=C3N=C2NC(=O)C4=CC(=CC=C4)[N+](=O)[O-] [IRAK-1-4 Inhibitor I]
Summary of the method: as §1

ibrutinib = compound: C=CC(=O)N1CCC[C@@H](n2nc(-c3ccc(Oc4ccccc4)cc3)c3c(N)ncnc32)C1 [ibrutinib]
Summary of the method: as §1

[9] = compound: CC(=O)c1cnc2ccc(-c3cc(Cl)c(O)c(Cl)c3)nc2c1N[C@H]1CC[C@H](CN(C)C)CC1
Summary of the method: as §1

ralimetinib = compound: CC(C)(C)Cn1c(N)nc2ccc(-c3[nH]c(C(C)(C)C)nc3-c3ccc(F)cc3)nc21 [ralimetinib]
Summary of the method: as §1

[10] = compound: CC(C)(O)CC(=O)NCCn1ccc2ncnc(Nc3ccc(Oc4cccc(C(F)(F)F)c4)c(Cl)c3)c21
Summary of the method: as §1

[11] = compound: CC(C)C1=C2N=C(C=C(N2N=C1)NCC3=CC=CC=C3)NCCCCCCN
Summary of the method: as §1

[12] = compound: CC1=C(C(CC(=O)N1)C2=CC=C(C=C2)C(F)(F)F)C(=O)NC3=C(C=C4C(=C3)C=NN4)F
Summary of the method: as §1

[13] = compound: CC1=C(C2=C(C=C1)C(=O)C3=CC=CC=C3N2CCCN)C
Summary of the method: as §1

[14] = compound: CC1=C(C=C(C=C1)NC(=O)C2=CC(=CC=C2)C(C)(C)C#N)NC3=CC4=C(C=C3)N=CN(C4=O)C
Summary of the method: as §1

[15] = compound: CC1=C(C=C(C=C1)NC(=O)C2=CC(=CC=C2)N(C)C)NC(=O)C3=CC=C(C=C3)O
Summary of the method: as §1

[16] = compound: CC1=CC=C(C=C1)SC2=C3C=C(SC3=CN=C2)C(=O)N
Summary of the method: as §1

Measured: log2 fold change

TMEM30A (UniProt Q9NV96)
inactive: erlotinib -0.007 | [1] 0.015 | [2] -0.024 | [3] -0.032 | [4] -0.014 | [5] 0.069 | [6] -0.005 | [7] -0.003 | [8] 0.039 | IRAK-1-4 Inhibitor I -0.013 | ibrutinib 0.049 | [9] -0.01 | ralimetinib -0.007 | [10] -0.014 | [11] -0.043 | [12] 0.011 | [13] -0.105 | [14] -0.002 | [15] 0.023 | [16] -0.024

TNNI3K isoform 1 (UniProt Q59H18)
inactive: erlotinib 0.27 | [1] 0.028 | [2] 0.122 | [3] -0.014 | [4] 0.033 | [5] 0.023 | [6] -0.052 | [7] 0.089 | [8] 0.057 | IRAK-1-4 Inhibitor I -0.032 | ibrutinib 0.055 | [9] -0.056 | ralimetinib 0.07 | [10] -0.04 | [11] -0.299 | [12] 0.139 | [13] -0.028 | [14] 0.058 | [15] -0.028 | [16] 0.059

TPM3 isoform 2 (UniProt P06753)
inactive: erlotinib -0.075 | [1] -0.007 | [2] -0.065 | [3] -0.008 | [4] 0.003 | [5] 0.004 | [6] 0.038 | [7] 0.039 | [8] -0.074 | IRAK-1-4 Inhibitor I -0.042 | ibrutinib 0.03 | [9] -0.007 | ralimetinib -0.02 | [10] 0.05 | [11] -0.034 | [12] -0.005 | [13] -0.019 | [14] -0.073 | [15] 0.002 | [16] -0.006

TMEM62 (UniProt Q0P6H9)
inactive: erlotinib -0.013 | [1] 0.057 | [2] 0.025 | [3] 0.003 | [4] 0.136 | [5] -0.019 | [6] 0.009 | [7] 0.008 | [8] 0.078 | IRAK-1-4 Inhibitor I 0.084 | ibrutinib 0.029 | [9] 0.065 | ralimetinib 0.03 | [10] -0.042 | [11] -0.005 | [12] 0.012 | [13] 0.016 | [14] -0.01 | [15] 0.006 | [16] 0.062

TMEM41A (UniProt Q96HV5)
inactive: erlotinib -0.045 | [1] -0.06 | [2] 0.062 | [3] 0 | [4] 0.061 | [5] -0.003 | [6] 0.082 | [7] 0 | [8] 0 | IRAK-1-4 Inhibitor I 0.08 | ibrutinib 0.048 | [9] 0.045 | ralimetinib 0.058 | [10] 0.005 | [11] -0.077 | [12] 0.011 | [13] -0.156 | [14] -0.05 | [15] -0.002 | [16] 0.016

TMLHE isoform 8 (UniProt Q9NVH6)
inactive: erlotinib -0.014 | [1] -0.065 | [2] 0.017 | [3] -0.056 | [4] -0.006 | [5] -0.013 | [6] 0.037 | [7] 0.002 | [8] 0.068 | IRAK-1-4 Inhibitor I 0.038 | ibrutinib -0.001 | [9] 0.011 | ralimetinib -0.004 | [10] -0.08 | [11] 0.025 | [12] -0.013 | [13] -0.011 | [14] 0.042 | [15] 0 | [16] 0.023

TMEM223 (UniProt A0PJW6)
inactive: erlotinib -0.282 | [1] 0.136 | [2] -0.369 | [3] -0.108 | [4] -0.052 | [5] 0.016 | [6] 0.118 | [7] 0.044 | [8] -0.026 | IRAK-1-4 Inhibitor I -0.065 | ibrutinib 0.081 | [9] 0.014 | ralimetinib 0.174 | [10] 0.203 | [11] -0.039 | [12] 0.058 | [13] 0.05 | [14] -0.224 | [15] 0 | [16] 0.025

TOPBP1 (UniProt Q92547)
inactive: erlotinib 0.004 | [1] -0.056 | [2] -0.034 | [3] 0.018 | [4] 0.002 | [5] 0.003 | [6] -0.009 | [7] -0.134 | [8] 0.072 | IRAK-1-4 Inhibitor I -0.006 | ibrutinib 0.012 | [9] 0.003 | ralimetinib 0.011 | [10] 0.011 | [11] 0.006 | [12] -0.02 | [13] -0.01 | [14] -0.035 | [15] 0.041 | [16] 0.055
